Taken from: PubChem BioAssay AID504744 (Drosophila RNAi Screening Center, 2011)
In all, the deposit lists about 23,000 reagents; this is a random part of those that have a named target and a result. In the full data, 98 (0.43%) were called active. 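Only hit calls are given; the phospho-dAkt signals, z-scores and hit direction were not deposited.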 Reagents against one gene are numbered here. A plus sign joins genes that one reagent is predicted to hit.

- Aim: 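Uncover factors, including feedback loops, that control dAkt activation in fly cells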 (primary screen)
- Cell system: Drosophila Kc167 cells
- Knock-down reagent: long dsRNA against Drosophila genes, 250 ng dsRNA per well of a 384-well plate
- Time to read-out: 3 days of knock-down, then overnight serum-free starvation before stimulation
- Conditions: bovine insulin at 387 nM for 10 minutes after 12 h without serum
- Detection: 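Per-well phospho-dAkt level from an in-cell fluorescent antibody stain, divided by a DNA-dye signal; log2 residuals turned into z-scores that take cell number into account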
- Active means: 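Under insulin, a gene counts as a hit if the average z-score of two replicates lies above 2.5 or below -2.5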

| Gene | dsRNA no. | call |
| --- | --- | --- |
| CG43347 | 1 | inactive |
| CG43347 | 2 | inactive |
| CG43347 | 3 | inactive |
| CG43347 | 4 | inactive |
| Scox (Synthesis of cytochrome c oxidase) | 1 | inactive |
| Tace | 1 | inactive |
| Ubc84D (Ubiquitin conjugating enzyme 84D) | 1 | inactive |
| CG8611 | 1 | inactive |
| FoxK (Forkhead box K) | 1 | inactive |
| CG30357 | 1 | inactive |
| CG7365 | 1 | inactive |
| spas (spastin) | 1 | inactive |
| Rab5 | 1 | inactive |
| CG13409 | 1 | inactive |
| Obp50c + Obp50b | 1 | inactive |
| CG6142 | 1 | inactive |
| TwdlZ (TweedleZ) | 1 | inactive |
| Arp8 (Actin-related protein 8) | 1 | inactive |
| Yod1 (Yod1 deubiquitinase) | 1 | inactive |
| Polr3K + Tcs1 | 1 | inactive |
| CG4942 | 1 | inactive |
| CG31769 | 1 | inactive |
| Ir68b (Ionotropic receptor 68b) | 1 | inactive |
| CG15199 | 1 | inactive |
| CG6280 | 1 | inactive |
| GstT2 (Glutathione S transferase T2) | 1 | inactive |
| Asciz (ASCIZ zinc finger protein) | 1 | inactive |
| CG13807 | 1 | inactive |
| CG11854 | 1 | inactive |
| Arl8 (ADP ribosylation factor-like 8) | 1 | inactive |
| CG10747 | 1 | inactive |
| CG13334 | 1 | inactive |
| CG7196 (retired record) | 1 | inactive |
| CG7196 (retired record) | 2 | inactive |
| CG30083 | 1 | inactive |
| Golgin104 (Golgin 104) | 1 | inactive |
| I-3 (Inhibitor-3) | 1 | inactive |
| CG7299 | 1 | inactive |
| msb1l | 1 | inactive |
| CG17560 | 1 | inactive |
| CG16863 | 1 | inactive |
| CG14411 | 1 | inactive |
| AP-2mu (Adaptor Protein complex 2, mu subunit) | 1 | inactive |
| CG32812 | 1 | inactive |
| Stoml2 (Stomatin like 2) | 1 | inactive |
| Gbs-70E (Glycogen binding subunit 70E) | 1 | inactive |
| C15 | 1 | inactive |
| C15 | 2 | inactive |
| Ance-4 | 1 | inactive |
| CG33655 | 1 | inactive |
| eIF3g1 (eukaryotic translation initiation factor 3 subunit g1) | 1 | inactive |
| CG11638 | 1 | inactive |
| CG11638 | 2 | inactive |
| kat-60L1 (katanin p60-like 1) | 1 | inactive |
| qless | 1 | inactive |
| qless | 2 | inactive |
| CG13538 | 1 | inactive |
| Polr2J (RNA polymerase II subunit J) | 1 | inactive |
| CG9864 | 1 | inactive |
| CG30350 | 1 | inactive |
| CG31211 | 1 | inactive |
| CG31211 | 2 | inactive |
| CG31211 | 3 | inactive |
| CG13114 | 1 | inactive |
| CG9799 | 1 | inactive |
| Osi11 (Osiris 11) | 1 | inactive |
| CG12640 | 1 | inactive |
| 7B2 | 1 | inactive |
| Wdfy2 (WD repeat and FYVE domain containing 2) | 1 | inactive |
| Corin | 1 | inactive |
| CG4712 | 1 | inactive |
| CG15580 | 1 | inactive |
| achi (achintya) | 1 | inactive |
| ebd2 (earthbound 2) | 1 | inactive |
| CG17078 | 1 | inactive |
| CG11367 | 1 | inactive |
| Fmo-2 (Flavin-containing monooxygenase 2) | 1 | inactive |
| CG33225 | 1 | inactive |
| mbl (muscleblind) | 1 | inactive |
| mbl (muscleblind) | 2 | inactive |
| mbl (muscleblind) | 3 | inactive |
| Ugt37A3 (UDP-glycosyltransferase family 37 member A3) | 1 | inactive |
| CG11041 | 1 | inactive |
| alc (alicorn) | 1 | inactive |
| alc (alicorn) | 2 | inactive |
| mbm (mushroom body miniature) | 1 | inactive |
| CG9577 | 1 | inactive |
| CG17108 | 1 | inactive |
| CG17108 | 2 | inactive |
| mip40 (Myb-interacting protein 40) | 1 | inactive |
| CG12539 | 1 | inactive |
| CG14419 | 1 | inactive |
| GckIII (Germinal centre kinase III) | 1 | inactive |
| Ncoa6 (Nuclear receptor coactivator 6) | 1 | inactive |
| Tsp42Eg (Tetraspanin 42Eg) | 1 | inactive |
| DCTN2-p50 (Dynactin 2, p50 subunit) | 1 | inactive |
| CG8785 | 1 | inactive |
| RunxA (Runt related A) | 1 | inactive |
| RunxA (Runt related A) | 2 | inactive |
| RunxA (Runt related A) | 3 | inactive |
| RunxA (Runt related A) | 4 | inactive |
| CG5500 | 1 | inactive |
| ImpL2 (Ecdysone-inducible gene L2) | 1 | inactive |
| hpRNA:CR32205 (hairpin RNA:CR32205) | 1 | inactive |
| CG4645 | 1 | inactive |
| CG13117 | 1 | inactive |
| Strica (Ser/Thr-rich caspase) | 1 | inactive |
| Cdc5 (Cell division cycle 5) | 1 | inactive |
| Vha55 (Vacuolar H[+]-ATPase 55kD subunit) | 1 | inactive |
| CG13713 | 1 | inactive |
| Cow | 1 | inactive |
| Cow | 2 | inactive |
| CG14131 | 1 | inactive |
| foi (fear-of-intimacy) | 1 | inactive |
| drm (drumstick) | 1 | inactive |
| Deaf1 (Deformed epidermal autoregulatory factor-1) | 1 | inactive |
| Deaf1 (Deformed epidermal autoregulatory factor-1) | 2 | inactive |
| CG31082 (retired record) | 1 | inactive |
| CG14072 | 1 | inactive |
| Saysd1 (SAYSVFN motif domain containing 1) | 1 | inactive |
| CG31054 (retired record) | 1 | inactive |
| obe (obelus) | 1 | inactive |
| brv3 (brivido-3) | 1 | inactive |
| CG7551 | 1 | inactive |
| tra2 (transformer 2) | 1 | inactive |
| CG30062 | 1 | inactive |
| Trf (TBP-related factor) | 1 | inactive |
| pHCl-2 (pH-sensitive chloride channel 2) | 1 | inactive |
| CG31661 | 1 | inactive |
| Faf2 (Fas-associated factor 2) | 1 | inactive |
| CG32280 | 1 | inactive |
| CG11444 | 1 | inactive |
| CG9497 | 1 | inactive |
| wdn (wings down) | 1 | inactive |
| Elp3 (Elongator complex protein 3) | 1 | inactive |
| bs (blistered) | 1 | inactive |
| CG32440 | 1 | inactive |
| CG12516 | 1 | inactive |
| TTLL5 (Tubulin tyrosine ligase-like 5) | 1 | inactive |
| Xbp1 (X box binding protein-1) | 1 | inactive |
| Xbp1 (X box binding protein-1) | 2 | inactive |
| ADD1 (ADD domain-containing protein 1) | 1 | inactive |
| CG10562 | 1 | inactive |
| CG7255 | 1 | inactive |
| Obp99c (Odorant-binding protein 99c) | 1 | inactive |
| Mct1 (Monocarboxylate transporter 1) | 1 | inactive |
| Csl4 | 1 | inactive |
| Csl4 | 2 | inactive |
| CG6191 | 1 | inactive |
| dom (domino) | 1 | inactive |
| dom (domino) | 2 | inactive |
| ATP7 | 1 | inactive |
| MED21 (Mediator complex subunit 21) | 1 | inactive |
| CG40282 (retired record) | 1 | inactive |
| CG30203 | 1 | inactive |
| CG34167 | 1 | inactive |
| CG1607 | 1 | inactive |
